According to patent US20030119067A1, “PYK2 related products and methods” (Sugen, Inc., priority 1996, published 2003):
At least one structure is not confirmed: it was looked up by name or label, or the drawing left a doubt. Residues, ends and D or L forms follow the SMILES beside them.

Legend:
[1] = test system: PYK2/Src complex; experiment: Association of PYK2 with activated Src in PC12 cells (co-immunoprecipitation); type: cell-based, rat; conditions: LPA 2.5 mM or bradykinin 1 mM, 3 min, 37° C.
Text: We examined the possibility of association between the two protein tyrosine kinases PYK2 and Src in response to LPA or bradykinin stimulation. Lysates from stimulated or unstimulated cells were subjected to immunoprecipitation with antibodies against Src followed by immunoblotting with antibodies against PYK2, against Src or anti-pY416src antibodies that specifically recognize activated Src. Liu et al., Oncogene 8:1119-1126 (1993).
(§1) PC12 cells were left untreated (−) or stimulated with LPA (2.5 mM) or bradykinin (1 mM) for 3 min at 37° C. Src was immunoprecipitated and immunoblotted with antibodies against Src, anti-pY416^src antibodies or antibodies against PYK2.

[2] = test system: Src; experiment: Src kinase activity in PC12 cells; type: cell-based, rat; conditions: PC12 cells stimulated with LPA or bradykinin
Procedure: Sadoshima & Izumo, EMBO J. 15:775-787 (1996); Wan et al., Nature 380:541-544 (1996). The EGF-receptor and erbB2 were also implicated in MAP kinase activation induced by LPA and other agonists of G-protein coupled receptors. Daub et al., Nature 379:557-564 (1996). We have tested whether LPA and bradykinin can activate Src and the EGF receptor in PC12 cells.
as §1

NC(N)=NCCC[C@H](NC(=O)[C@H](Cc1ccccc1)NC(=O)[C@@H]1CCCN1C(=O)[C@H](CO)NC(=O)[C@H](Cc1ccccc1)NC(=O)CNC(=O)[C@@H]1CCCN1C(=O)[C@@H]1CCCN1C(=O)[C@@H](N)CCCN=C(N)N)C(=O)O [bradykinin] (H-RPPGFSPFR-OH)
complex formation of PYK2 with activated Src [1]: forms a complex with activated Src | increase in Src kinase activity [2]: approximately three to four
